Results are given in words; binding and its absence hold for the method and conditions named. Binding seen in cells or lysates may run through a third protein. Some results given as binding are weak or reduced against the parent protein; the word gives no strength.
Experiments:
GFP-GABARAP = GFP-GABARAP (UniProt O95166); assay: co-IP; SH-SY5Y cells overexpressing GABARAPs with NDP52^WT or NDP52^GE (Supplementary Fig. S1A); direction not told
GFP-GABARAPL2 = GFP-GABARAPL2 (UniProt P60520); assay: as above
HA-LC3A = HA-LC3A (UniProt Q9H492); assay: co-IP; SH-SY5Y cells overexpressing LC3A or LC3B with NDP52^WT or NDP52^GE (Supplementary Fig. S1B); direction not told

Amino acid sequences for entries named in this document (tags omitted). A change or cut given only in a name is not applied to a line headed by its entry. Chains listed by the source or under a name are the forms on record and can include a tag or linker.
UniProt O95166: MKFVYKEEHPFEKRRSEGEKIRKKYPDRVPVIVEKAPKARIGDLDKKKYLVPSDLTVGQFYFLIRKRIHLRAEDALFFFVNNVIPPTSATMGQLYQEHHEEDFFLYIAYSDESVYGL
UniProt P60520: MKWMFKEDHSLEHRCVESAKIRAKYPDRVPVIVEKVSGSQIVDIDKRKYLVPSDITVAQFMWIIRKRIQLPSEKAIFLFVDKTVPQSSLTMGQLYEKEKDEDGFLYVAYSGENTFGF
FLAG-NDP52^GE (Q13137, form named): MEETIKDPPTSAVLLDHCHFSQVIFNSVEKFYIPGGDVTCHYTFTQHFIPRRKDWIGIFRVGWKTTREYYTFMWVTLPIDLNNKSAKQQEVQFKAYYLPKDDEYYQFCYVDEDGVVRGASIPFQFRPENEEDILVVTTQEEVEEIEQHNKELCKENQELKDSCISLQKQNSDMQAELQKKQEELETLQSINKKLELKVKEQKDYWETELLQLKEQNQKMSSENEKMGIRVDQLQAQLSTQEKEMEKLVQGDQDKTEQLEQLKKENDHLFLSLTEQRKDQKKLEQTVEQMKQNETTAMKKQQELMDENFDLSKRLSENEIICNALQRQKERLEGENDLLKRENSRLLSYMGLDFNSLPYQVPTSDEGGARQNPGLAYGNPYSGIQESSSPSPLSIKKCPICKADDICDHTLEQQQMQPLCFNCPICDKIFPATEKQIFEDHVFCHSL

Measured: binding

FLAG-NDP52^GE (from UniProt Q13137 1-446)
binds weakly: all assays above

FLAG-NDP52^WT (from UniProt Q13137 1-446)
binds weakly: all assays above

Source: article PMC12000434 (2025)
